# ± gives the standard deviation of the averaged measurements. Some of the results follow.
# Columns and labels:
# Test in all cases: NP40-soluble protein abundance relative to vehicle (solubility fold change) (ratio); higher = more soluble protein in presence of GTP
# [1] = molecular target: T1, A0A087WXR2|F5GWK5 and related entries (UniProt Q9Y365)
# T1 sequence (whole entry): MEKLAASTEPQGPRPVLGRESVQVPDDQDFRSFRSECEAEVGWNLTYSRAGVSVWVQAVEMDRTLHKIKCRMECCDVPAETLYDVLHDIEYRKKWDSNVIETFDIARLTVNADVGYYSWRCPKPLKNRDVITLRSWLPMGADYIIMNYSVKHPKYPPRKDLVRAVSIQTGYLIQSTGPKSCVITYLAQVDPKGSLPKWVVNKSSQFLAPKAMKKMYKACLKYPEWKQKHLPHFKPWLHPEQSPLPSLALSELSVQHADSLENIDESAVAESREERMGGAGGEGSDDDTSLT
# Method in brief: (§1)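 Eight concentrations, 0.1 to 10 mM, were tested on Jurkat crude lysate for 10 min at room temperature and then 3 min at 37 °C, in three independent experiments. The lysate was solubilised with 0.8% NP40 and benzonase, ultracentrifuged, and the supernatant TMT-labelled for LC-MS/MS. Each value is the fold change against the detergent-processed vehicle in its own replicate, from vsn-normalised intensities.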
# [2] = molecular target: T2, A0A087WZD8|C9JNH7 and related entries (UniProt Q8WUA4)
# T2 sequence (whole entry): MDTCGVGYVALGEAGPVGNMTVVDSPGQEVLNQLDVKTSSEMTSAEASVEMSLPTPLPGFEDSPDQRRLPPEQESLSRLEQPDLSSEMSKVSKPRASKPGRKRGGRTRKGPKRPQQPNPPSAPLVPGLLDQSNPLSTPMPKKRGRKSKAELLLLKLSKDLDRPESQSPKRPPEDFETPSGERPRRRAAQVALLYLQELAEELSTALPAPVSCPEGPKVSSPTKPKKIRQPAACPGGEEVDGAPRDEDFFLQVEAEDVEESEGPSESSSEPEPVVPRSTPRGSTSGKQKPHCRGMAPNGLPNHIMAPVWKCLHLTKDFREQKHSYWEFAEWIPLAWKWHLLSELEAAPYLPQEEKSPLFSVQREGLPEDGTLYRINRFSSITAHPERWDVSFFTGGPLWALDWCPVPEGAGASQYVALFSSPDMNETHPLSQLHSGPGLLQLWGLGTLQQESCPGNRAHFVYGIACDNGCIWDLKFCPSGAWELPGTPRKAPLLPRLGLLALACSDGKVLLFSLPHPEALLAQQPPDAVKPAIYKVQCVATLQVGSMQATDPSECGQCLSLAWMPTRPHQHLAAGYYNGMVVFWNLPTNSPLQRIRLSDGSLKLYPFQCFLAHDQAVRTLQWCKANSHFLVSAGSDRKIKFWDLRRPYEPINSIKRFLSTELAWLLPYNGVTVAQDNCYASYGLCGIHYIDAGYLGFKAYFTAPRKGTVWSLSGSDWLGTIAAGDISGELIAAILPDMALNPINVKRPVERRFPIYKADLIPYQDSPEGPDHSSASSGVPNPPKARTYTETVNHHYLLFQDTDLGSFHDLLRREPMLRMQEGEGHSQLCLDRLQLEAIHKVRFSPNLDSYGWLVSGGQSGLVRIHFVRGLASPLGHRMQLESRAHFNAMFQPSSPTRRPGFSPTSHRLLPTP
# Method in brief: as §1
# [3] = molecular target: T3, A0A087X060|G3V2W9 and related entries (UniProt Q56P03)
# T3 sequence (whole entry): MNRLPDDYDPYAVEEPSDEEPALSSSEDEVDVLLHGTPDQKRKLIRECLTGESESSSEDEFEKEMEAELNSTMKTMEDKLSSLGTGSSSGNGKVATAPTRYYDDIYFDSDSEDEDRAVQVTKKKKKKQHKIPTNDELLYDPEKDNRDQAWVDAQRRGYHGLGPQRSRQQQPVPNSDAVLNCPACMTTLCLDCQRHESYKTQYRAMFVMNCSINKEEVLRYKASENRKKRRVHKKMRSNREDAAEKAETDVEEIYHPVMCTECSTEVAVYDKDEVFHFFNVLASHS
# Method in brief: as §1
# [4] = molecular target: T4, A0A087X0R6|Q9UMY4 and related entries (UniProt Q9UMY4)
# T4 sequence (whole entry): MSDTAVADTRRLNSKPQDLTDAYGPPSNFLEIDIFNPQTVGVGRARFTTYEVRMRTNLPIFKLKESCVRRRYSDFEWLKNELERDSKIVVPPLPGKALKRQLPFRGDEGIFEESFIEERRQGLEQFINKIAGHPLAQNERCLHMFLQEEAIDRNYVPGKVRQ
# Method in brief: as §1
# [5] = molecular target: T5, A0A087X142|A6NFQ9 and related entries (UniProt Q92599)
# T5 sequence (whole entry): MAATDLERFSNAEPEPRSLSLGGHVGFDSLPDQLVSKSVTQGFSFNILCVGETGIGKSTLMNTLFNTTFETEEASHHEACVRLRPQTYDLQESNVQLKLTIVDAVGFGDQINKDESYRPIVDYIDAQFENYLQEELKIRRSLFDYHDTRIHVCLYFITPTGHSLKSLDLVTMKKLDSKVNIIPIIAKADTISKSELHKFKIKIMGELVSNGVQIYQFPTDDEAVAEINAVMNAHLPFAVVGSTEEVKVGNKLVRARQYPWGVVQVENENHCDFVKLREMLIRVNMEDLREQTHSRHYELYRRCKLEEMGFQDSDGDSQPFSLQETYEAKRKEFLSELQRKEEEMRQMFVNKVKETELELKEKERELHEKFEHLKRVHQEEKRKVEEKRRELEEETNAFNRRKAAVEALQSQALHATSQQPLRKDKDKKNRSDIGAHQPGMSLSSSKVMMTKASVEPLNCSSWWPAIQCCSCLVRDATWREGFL
# Method in brief: as §1
# [6] = molecular target: T6, A0A0A0MRL7|P55210 and related entries (UniProt P55210)
# T6 sequence (whole entry): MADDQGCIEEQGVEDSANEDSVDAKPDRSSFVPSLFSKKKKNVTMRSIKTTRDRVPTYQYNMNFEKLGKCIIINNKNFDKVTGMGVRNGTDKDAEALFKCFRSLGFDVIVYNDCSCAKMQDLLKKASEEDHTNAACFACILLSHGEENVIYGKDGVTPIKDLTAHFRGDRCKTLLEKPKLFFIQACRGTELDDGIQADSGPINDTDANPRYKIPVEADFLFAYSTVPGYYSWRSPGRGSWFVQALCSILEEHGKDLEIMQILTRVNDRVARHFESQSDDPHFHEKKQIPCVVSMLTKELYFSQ
# Method in brief: as §1
# [7] = molecular target: T7, A0A0A0MSG2|J3KNW4 and related entries (UniProt Q14192)
# T7 sequence (whole entry): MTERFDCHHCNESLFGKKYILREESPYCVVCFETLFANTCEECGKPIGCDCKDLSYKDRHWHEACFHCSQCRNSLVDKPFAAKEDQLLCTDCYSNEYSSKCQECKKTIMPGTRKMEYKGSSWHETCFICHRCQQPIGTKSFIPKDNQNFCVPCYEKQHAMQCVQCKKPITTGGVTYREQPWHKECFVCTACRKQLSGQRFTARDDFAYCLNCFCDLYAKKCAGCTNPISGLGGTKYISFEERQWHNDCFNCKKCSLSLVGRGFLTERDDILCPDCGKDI
# Method in brief: as §1
smiles,measurement,setting,value
Nc1nc2c(ncn2[C@@H]2O[C@H](COP(=O)(O)OP(=O)(O)OP(=O)(O)O)[C@@H](O)[C@H]2O)c(=O)[nH]1 [guanosine triphosphate],NP40-soluble protein abundance,[1]; concentration: 0.1mM,0.9676 ± 0.0069
same,NP40-soluble protein abundance,[1]; concentration: 0.5mM,1.05 ± 0.015
same,NP40-soluble protein abundance,[1]; concentration: 1mM,1.09 ± 0.026
same,NP40-soluble protein abundance,[1]; concentration: 2mM,0.953 ± 0.093
same,NP40-soluble protein abundance,[1]; concentration: 4mM,0.996 ± 0.013
same,NP40-soluble protein abundance,[1]; concentration: 6mM,0.9467 ± 0.0086
same,NP40-soluble protein abundance,[1]; concentration: 8mM,1.12 ± 0.12
same,NP40-soluble protein abundance,[1]; concentration: 10mM,1.03 ± 0.043
same,NP40-soluble protein abundance,[2]; concentration: 0.1mM,1.06 ± 0.037
same,NP40-soluble protein abundance,[2]; concentration: 0.5mM,1.06 ± 0.059
same,NP40-soluble protein abundance,[2]; concentration: 1mM,1.06 ± 0.039
same,NP40-soluble protein abundance,[2]; concentration: 2mM,1.07 ± 0.075
same,NP40-soluble protein abundance,[2]; concentration: 4mM,1.11 ± 0.062
same,NP40-soluble protein abundance,[2]; concentration: 6mM,1.12 ± 0.037
same,NP40-soluble protein abundance,[2]; concentration: 8mM,1.096 ± 0.0052
same,NP40-soluble protein abundance,[2]; concentration: 10mM,1.11 ± 0.061
same,NP40-soluble protein abundance,[3]; concentration: 0.1mM,0.949 ± 0.11
same,NP40-soluble protein abundance,[3]; concentration: 0.5mM,0.984 ± 0.08
same,NP40-soluble protein abundance,[3]; concentration: 1mM,1.07 ± 0.027
same,NP40-soluble protein abundance,[3]; concentration: 2mM,1.08 ± 0.088
same,NP40-soluble protein abundance,[3]; concentration: 4mM,1.15 ± 0.15
same,NP40-soluble protein abundance,[3]; concentration: 6mM,1.14 ± 0.053
same,NP40-soluble protein abundance,[3]; concentration: 8mM,1.16 ± 0.18
same,NP40-soluble protein abundance,[3]; concentration: 10mM,1.13 ± 0.19
same,NP40-soluble protein abundance,[4]; concentration: 0.1mM,0.871 ± 0.063
same,NP40-soluble protein abundance,[4]; concentration: 0.5mM,0.8387 ± 0.0023
same,NP40-soluble protein abundance,[4]; concentration: 1mM,0.965 ± 0.035
same,NP40-soluble protein abundance,[4]; concentration: 2mM,0.94 ± 0.03
same,NP40-soluble protein abundance,[4]; concentration: 4mM,0.921 ± 0.057
same,NP40-soluble protein abundance,[4]; concentration: 6mM,0.884 ± 0.06
same,NP40-soluble protein abundance,[4]; concentration: 8mM,0.846 ± 0.08
same,NP40-soluble protein abundance,[4]; concentration: 10mM,0.929 ± 0.055
same,NP40-soluble protein abundance,[5]; concentration: 0.1mM,1.02 ± 0.087
same,NP40-soluble protein abundance,[5]; concentration: 0.5mM,1.02 ± 0.14
same,NP40-soluble protein abundance,[5]; concentration: 1mM,0.953 ± 0.17
same,NP40-soluble protein abundance,[5]; concentration: 2mM,1.02 ± 0.12
same,NP40-soluble protein abundance,[5]; concentration: 4mM,0.985 ± 0.12
same,NP40-soluble protein abundance,[5]; concentration: 6mM,0.975 ± 0.065
same,NP40-soluble protein abundance,[5]; concentration: 8mM,1.01 ± 0.17
same,NP40-soluble protein abundance,[5]; concentration: 10mM,0.943 ± 0.039
same,NP40-soluble protein abundance,[6]; concentration: 0.1mM,0.999 ± 0.086
same,NP40-soluble protein abundance,[6]; concentration: 0.5mM,1 ± 0.072
same,NP40-soluble protein abundance,[6]; concentration: 1mM,0.92 ± 0.083
same,NP40-soluble protein abundance,[6]; concentration: 2mM,0.915 ± 0.084
same,NP40-soluble protein abundance,[6]; concentration: 4mM,0.872 ± 0.093
same,NP40-soluble protein abundance,[6]; concentration: 6mM,0.903 ± 0.06
same,NP40-soluble protein abundance,[6]; concentration: 8mM,0.89 ± 0.085
same,NP40-soluble protein abundance,[6]; concentration: 10mM,0.901 ± 0.074
same,NP40-soluble protein abundance,[7]; concentration: 0.1mM,1.21 ± 0.29
same,NP40-soluble protein abundance,[7]; concentration: 0.5mM,1.06 ± 0.047
same,NP40-soluble protein abundance,[7]; concentration: 1mM,1.05 ± 0.19
same,NP40-soluble protein abundance,[7]; concentration: 2mM,1.08 ± 0.11

# 3 consecutive records already listed, for reference:
smiles,measurement,setting,value
Nc1nc2c(ncn2[C@@H]2O[C@H](COP(=O)(O)OP(=O)(O)OP(=O)(O)O)[C@@H](O)[C@H]2O)c(=O)[nH]1 [guanosine triphosphate],NP40-soluble protein abundance,[7]; concentration: 0.5mM,1.06 ± 0.047
same,NP40-soluble protein abundance,[7]; concentration: 1mM,1.05 ± 0.19
same,NP40-soluble protein abundance,[7]; concentration: 2mM,1.08 ± 0.11
